Test results from US8907107B2 (Hae Therapeutics Limited, priority 2009, dated 2014).
Some results were stated once for a whole list of compounds, not compound by compound.

Assay: Stability in PBS/BSA solution exposed to ambient light
Type: physicochemical
Conditions: PBS containing 4×10^−4 M BSA, after 24 hours

O=S(=O)(O)CCCOc1ccc(C2=[N+]3C(=Nc4c(-c5ccccc5)cc(-c5ccc(OCCCS(=O)(=O)O)cc5)n4[B-]3(F)F)C(c3ccccc3)=C2)cc1 [Compound 17]
variance in absorbance and fluoresence intensity: less than 10%

O=C(O)COc1ccc(C2=[N+]3C(=Nc4c(-c5ccccc5)cc(-c5ccc(OCC(=O)O)cc5)n4[B-]3(F)F)C(c3ccccc3)=C2)cc1 [Compound 16]
variance in absorbance and fluoresence intensity: less than 10%
